Test results published in PubChem BioAssay AID540256 (National Center for Advancing Translational Sciences (NCATS), 2011).
Among all 300,000 compounds or so, about 3,700 (1.2%) were called active. Inconclusive results, whose numbers are uncertain, are shown with a selection of clear calls. Calls follow the shape of the full dose curve; tested in HEK293 cells. Potencies beside an inconclusive call are fits to weak or partial responses and may not hold up.

assay: qHTS for Inhibitors of binding or entry into cells for Lassa Virus; conditions: Lassa virus pseudotype entry inhibition, cell reporter; series mostly up to 37.9 µM; also: nearly all actives have a fitted effect of over 50% in size
Potency is read from the fitted curve at half-maximal effect.

With `COCCNC(=O)Cn1cnc2c(cnn2-c2ccc(C)cc2)c1=O` as the compound, how does the Potency read?
The Potency was “inactive”.

Which Potency does the source give for `COCC(C)n1c(C)cc(C(=O)COC(=O)c2nn(C)c(=O)c3ccccc23)c1C` (stereo not given) here?
Its Potency is “inactive”.

With `O=C(Cc1cccs1)N1CCN(c2ccc(F)cc2)CC1` as the compound, how does the Potency read?
The Potency was inconclusive: 2 µM [inhibitor, partial curve, poor fit].

Which Potency does the source give for `COc1cc(C)c(NC(=O)C(=S)NCCc2ccccc2)cc1C` here?
The Potency was inconclusive: 11.2 µM [inhibitor, single point].

With `CCc1cccc(-n2c(=O)c3cccnc3n2CC(=O)NCc2ccccc2Cl)c1` as the compound, how does the Potency read?
Its Potency is “inactive”.

With `COc1ccccc1C(=O)N/C(=C\c1ccccc1)C(=O)NCc1ccco1` as the compound, how does the Potency read?
Its Potency is inconclusive: 4.11 µM [inhibitor, partial curve, poor fit].

For `CC(N)[C@H](O)c1ccc(O)c(O)c1` (stereo not given in full), which Potency is on record?
The Potency was inconclusive: 25.9 µM [inhibitor, partial curve, poor fit].

Which Potency does the source give for `Cc1ccc(-c2cc(C(=O)OCC(=O)N(C)C3CCS(=O)(=O)C3)c3ccccc3n2)c(C)c1` (stereo not given) here?
Its Potency is “inactive”.

For `CCOc1cccc(NC(=O)c2cnccc2C(F)(F)F)c1`, which Potency is on record?
Its Potency is “inactive”.

With `N#C/C(=C\N1CCOCC1)S(=O)(=O)c1ccc(Cl)cc1` as the compound, how does the Potency read?
The Potency was inconclusive: 3.16 µM [inhibitor, single point].

With `CCOC(=O)c1ccc(NC(=O)CCc2c(C)n(CC)c3cc(-c4ccccc4OC)nn3c2=O)cc1` as the compound, how does the Potency read?
Its Potency is “inactive”.

For `O=C(NCc1ccccc1)C1(c2ccccc2)CCN(S(=O)(=O)c2ccccc2)CC1`, which Potency is on record?
The Potency was inconclusive: 0.13 µM [inhibitor, full curve, poor fit].

For `CCC(C)[C@H](NC(=O)N1CCn2c1nc1ccccc12)C(=O)NCc1ccccc1` (stereo not given in full), which Potency is on record?
Its Potency is inconclusive: 8.91 µM [inhibitor, partial curve, poor fit].

For `Cn1c(SCC(=O)N2CCOCC2)nnc1-c1ccccc1`, which Potency is on record?
Its Potency is inconclusive: 5.17 µM [activator, single point].

With `Cc1oc(=O)c(NC(=O)c2ccccc2)cc1C(=O)c1ccccc1` as the compound, how does the Potency read?
Its Potency is inconclusive: 20.6 µM [activator, single point].

For `Cc1ccc2c(c1)C=CC(C)N2C(=O)c1ccccc1` (stereo not given), which Potency is on record?
The Potency was “inactive”.

Which Potency does the source give for `CCCc1cc(-c2nc(-c3ccc(C)cc3)cs2)ccn1` here?
Its Potency is inconclusive: 23.1 µM [inhibitor, single point].

With `CC(C)C(=O)Nc1ccc(-c2csc(-c3ccccc3)n2)cc1` as the compound, how does the Potency read?
Its Potency is inconclusive: 3.66 µM [activator, full curve].

With `Cc1ccc(C(=O)N2CCN(c3ccc([N+](=O)[O-])c(NCc4cccnc4)c3)CC2)cc1` as the compound, how does the Potency read?
Its Potency is inconclusive: 13 µM [inhibitor, single point].

Which Potency does the source give for `CN(C)C(=O)CCCc1nc(-c2ccc(Cl)cc2)no1` here?
Its Potency is inconclusive: 29.1 µM [inhibitor, single point].

For `O=C(NC1C2CC3CC(C2)CC1C3)C1CC1` (stereo not given), which Potency is on record?
The Potency was inconclusive: 0.58 µM [inhibitor, partial curve, poor fit].

Which Potency does the source give for `CC(=O)NCC(=O)NC(Cc1ccccc1)C(N)=O` (stereo not given) here?
The Potency was “inactive”.

For `CCNC(=O)c1sc(-c2ccccc2)nc1C`, which Potency is on record?
Its Potency is “inactive”.

With `CC1CCN(S(=O)(=O)c2cc(C(=O)NCCc3ccccc3)n(C)c2)CC1` as the compound, how does the Potency read?
The Potency was “inactive”.

Which Potency does the source give for `CN1C(=O)C2(Nc3ccccc3-c3nc4ccccc4n32)c2ccccc21` (stereo not given) here?
The Potency was “inactive”.

Which Potency does the source give for `COc1ccc(C)cc1S(=O)(=O)NCC(c1ccco1)N1CCc2ccccc2C1` (stereo not given) here?
The Potency was “inactive”.

Which Potency does the source give for `CCn1c(SCC(=O)N2CCCc3ccccc32)nc2ccccc2c1=O` here?
Its Potency is inconclusive: 20.6 µM [inhibitor, partial curve, poor fit].

For `O=C(NCc1ccccn1)c1ccc(N2CCCC2=O)cc1`, which Potency is on record?
Its Potency is inconclusive: 1 µM [activator, full curve, poor fit].

For `CCCCCCCCc1nnc(N)s1`, which Potency is on record?
The Potency was inconclusive: 6.31 µM [inhibitor, partial curve, poor fit].

For `Cc1ccc(C)c(N2CCN(C(=O)c3ccc(CS(=O)Cc4ccc(Cl)cc4)o3)CC2)c1` (stereo not given), which Potency is on record?
The Potency was inconclusive: 31.6 µM [inhibitor, partial curve, poor fit].

For `COc1ccc(-c2csc(NC(=O)c3ccccc3Br)c2C(=O)O)cc1`, which Potency is on record?
The Potency was “inactive”.

With `Cc1nn(Cc2ccccc2Cl)c(C)c1NC(=O)c1nc2ncccn2n1` as the compound, how does the Potency read?
Its Potency is “inactive”.

Which Potency does the source give for `Cc1nccn1-c1c2c(c(C#N)c3nc4ccccc4n13)CCC2` here?
The Potency was “inactive”.

Which Potency does the source give for `COCCC(=O)N1CCC(Oc2ccc(C(=O)NCCCC3CCCC3)cc2)CC1` here?
Its Potency is “inactive”.

Which Potency does the source give for `CC1CCCCN1C(=O)CSc1nnc(-c2cccs2)o1` (stereo not given) here?
Its Potency is inconclusive: 1.58 µM [activator, partial curve, poor fit].

Which Potency does the source give for `C/C(N)=C(/C#N)C(=O)CSc1nnc(-c2ccc3c(c2)OCO3)o1` here?
Its Potency is inconclusive: 7.3 µM [inhibitor, partial curve].

Which Potency does the source give for `COc1ccc(C(=O)CC(Nc2ccc([N+](=O)[O-])cc2)c2ccc(OC)cc2)cc1` (stereo not given) here?
The Potency was inconclusive: 13 µM [inhibitor, partial curve].

For `CC1(C)C(=O)Nc2ccccc2N1C(=O)CSc1nc(-c2ccccc2)cs1`, which Potency is on record?
The Potency was “inactive”.

With `O=[N+]([O-])c1ccc2nc(C(O)C(O)c3nc4ccc([N+](=O)[O-])cc4[nH]3)[nH]c2c1` (stereo not given) as the compound, how does the Potency read?
Its Potency is inconclusive: 1 µM [inhibitor, single point].

For `Cc1ncc(CNC(=O)N(CCCl)N=O)c(N)n1`, which Potency is on record?
The Potency was “inactive”.

For `O=C(Nc1nc2c(s1)CCCC2)Oc1ccccc1`, which Potency is on record?
The Potency was inconclusive: 10 µM [activator, partial curve, poor fit].

Which Potency does the source give for `COc1ccc(NS(=O)(=O)c2ccc(NC(=O)CCNS(=O)(=O)c3ccc(C)cc3)cc2)cc1` here?
The Potency was inconclusive: 15.8 µM [inhibitor, partial curve, poor fit].

For `CN1CCN(C(=O)c2ccc(C(C)(C)C)cc2)CC1`, which Potency is on record?
Its Potency is inconclusive: 29.1 µM [activator, single point].

For `COc1ccccc1NC(=O)CSc1nnc(-c2nonc2NC(C)=O)n1-c1ccccc1`, which Potency is on record?
Its Potency is “inactive”.

With `Cc1cc(C)cc(N(CC(=O)NCc2ccccc2)C(=O)CCC(=O)Nc2ccccn2)c1` as the compound, how does the Potency read?
Its Potency is inconclusive: 8.91 µM [inhibitor, partial curve].

With `CCc1ccc(NC(=O)Cn2c(=O)n(Cc3nc(C)no3)c(=O)c3cc4c(cc32)OCO4)cc1` as the compound, how does the Potency read?
The Potency was “inactive”.

For `COCc1nnc(NC(=O)c2ccc(S(=O)(=O)N(CC(C)C)CC(C)C)cc2)o1`, which Potency is on record?
The Potency was inconclusive: 8.2 µM [inhibitor, partial curve, poor fit].

Which Potency does the source give for `Nc1cc(=O)[nH]c(SCC(=O)Nc2cccc(S(=O)(=O)N3CCCCC3)c2)n1` here?
The Potency was inconclusive: 2.82 µM [activator, full curve, poor fit].

For `CC(=O)N(C)c1ccc(NC(=S)Nc2ccccc2)cc1`, which Potency is on record?
Its Potency is “inactive”.

With `CCN(CC)CCN1C(=O)Cn2c(C)c(C)c3cccc1c32` as the compound, how does the Potency read?
The Potency was inconclusive: 32.6 µM [inhibitor, partial curve, poor fit].

With `Cc1cc(C(=O)N/N=C\c2ccc(COc3ccc([N+](=O)[O-])cc3)o2)ccc1[N+](=O)[O-]` as the compound, how does the Potency read?
The Potency was inconclusive: 29.1 µM [inhibitor, single point].

With `CC1CCN(C(=O)CSc2nc3c([nH]c4ccccc43)c(=O)n2-c2ccccc2)CC1` as the compound, how does the Potency read?
The Potency was “inactive”.

Which Potency does the source give for `CCCC(C(=O)O)N1C(=O)/C(=C2\C(=O)N(C)c3ccccc32)SC1=S` (stereo not given) here?
Its Potency is inconclusive: 3.98 µM [activator, single point].

With `CC(=O)c1ccc(N2CCN(c3ncccn3)CC2)cc1` as the compound, how does the Potency read?
Its Potency is “inactive”.

With `Cc1sc2ncnc(N[C@@H](CCC(=O)O)C(=O)O)c2c1C` as the compound, how does the Potency read?
Its Potency is “inactive”.

With `CCOc1ccc(S(=O)(=O)N2CCN(C(=O)CCOc3ccccc3C)CC2)cc1` as the compound, how does the Potency read?
Its Potency is inconclusive: 11.2 µM [inhibitor, partial curve].

Which Potency does the source give for `COc1ccccc1/C=C/C=C1\Oc2c(ccc(O)c2CN2CCN(CCO)CC2)C1=O` here?
The Potency was “inactive”.

For `CC(=O)Nc1ccc(/C(C)=N/NC(=O)c2ccc(COc3ccccc3Cl)o2)cc1`, which Potency is on record?
Its Potency is inconclusive: 2.82 µM [inhibitor, full curve, poor fit].

With `CC(=O)c1c(N2CCN(c3ccc(F)cc3)CC2)nc(=S)n(Cc2ccccc2)c1C` as the compound, how does the Potency read?
Its Potency is “inactive”.

Which Potency does the source give for `O/N=C/c1ccc(OCc2ccccc2)c(Br)c1` here?
The Potency was inconclusive: 32.6 µM [inhibitor, single point].

For `O=C(COC(=O)CC(c1ccccc1)c1ccccc1)NCc1ccc(Cl)cc1`, which Potency is on record?
Its Potency is inconclusive: 14.1 µM [inhibitor, single point].

For `Cc1nn(CC(=O)NCc2ccccc2Cl)c(=O)c2cccn12`, which Potency is on record?
Its Potency is “inactive”.

With `Nn1cnnc1N/N=C/c1cccc(Cl)c1Cl` as the compound, how does the Potency read?
Its Potency is inconclusive: 35.5 µM [inhibitor, single point].

Which Potency does the source give for `O=C1C2C3CC(C(Br)C3Br)C2C(=O)N1CC1CCCO1` (stereo not given) here?
Its Potency is “inactive”.

Which Potency does the source give for `CCOC(=O)C1CCN(C(=O)C2CCN(c3nnc(C)c4c(C)n(-c5ccccc5)nc34)CC2)CC1` here?
Its Potency is inconclusive: 4.47 µM [activator, full curve, poor fit].

Which Potency does the source give for `O=C(OC(c1ccccc1)c1nccc2ccccc12)c1cc([N+](=O)[O-])cc([N+](=O)[O-])c1` (stereo not given) here?
The Potency was inconclusive: 35.5 µM [inhibitor, single point].

For `CCOC(=O)c1ccccc1NC(=O)N1CCCN(S(=O)(=O)c2ccc3c(ccn3CC)c2)CC1`, which Potency is on record?
Its Potency is inconclusive: 5.01 µM [inhibitor, full curve].

Which Potency does the source give for `Cc1n[nH]c(=O)nc1N/N=C/c1ccc(O)c([N+](=O)[O-])c1` here?
The Potency was inconclusive: 0.092 µM [inhibitor, full curve, poor fit].

Which Potency does the source give for `CC(C)CNC(=O)c1ccc(C2SCC(=O)N2Cc2ccccc2)cc1` (stereo not given) here?
Its Potency is inconclusive: 11.2 µM [inhibitor, partial curve, poor fit].

For `Cc1ccc(-n2c3nc(=O)[nH]c(=O)c-3cc3cc([N+](=O)[O-])ccc32)cc1C`, which Potency is on record?
The Potency was inconclusive: 35.5 µM [inhibitor, single point].
